Here are results for 1 molecule from paper PMC5615345 (2017).

In test [1] the target is T1, Methanocaldococcus jannaschii RecJ1 (MJ0977) (Methanocaldococcus jannaschii) (UniProt Q58387).
T1 sequence: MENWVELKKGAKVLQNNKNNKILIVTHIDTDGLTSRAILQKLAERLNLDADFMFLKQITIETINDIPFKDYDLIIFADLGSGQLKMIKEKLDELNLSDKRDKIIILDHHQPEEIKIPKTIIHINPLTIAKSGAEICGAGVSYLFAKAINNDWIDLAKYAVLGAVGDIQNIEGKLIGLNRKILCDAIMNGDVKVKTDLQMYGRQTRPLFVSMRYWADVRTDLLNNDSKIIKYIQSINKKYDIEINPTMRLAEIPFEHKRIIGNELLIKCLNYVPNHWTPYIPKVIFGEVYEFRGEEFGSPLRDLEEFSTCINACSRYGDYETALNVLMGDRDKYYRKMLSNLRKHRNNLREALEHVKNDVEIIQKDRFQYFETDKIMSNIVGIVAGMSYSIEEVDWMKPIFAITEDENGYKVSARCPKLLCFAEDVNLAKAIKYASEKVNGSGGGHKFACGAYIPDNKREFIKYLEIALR
The test is described as follows: pull-down; purified 6×His-RecJ mixed with His-tag-free GINS in a molecular ratio of 1:2, 37 °C for 30 min; Ni-NTA resin, washed, eluted with 200 mM imidazole; eluates on 15% SDS-PAGE; both purified.

Test [2] concerns the target T2, Methanocaldococcus jannaschii RecJ2 (MJ0831) (Methanocaldococcus jannaschii) (UniProt Q58241).
T2 sequence: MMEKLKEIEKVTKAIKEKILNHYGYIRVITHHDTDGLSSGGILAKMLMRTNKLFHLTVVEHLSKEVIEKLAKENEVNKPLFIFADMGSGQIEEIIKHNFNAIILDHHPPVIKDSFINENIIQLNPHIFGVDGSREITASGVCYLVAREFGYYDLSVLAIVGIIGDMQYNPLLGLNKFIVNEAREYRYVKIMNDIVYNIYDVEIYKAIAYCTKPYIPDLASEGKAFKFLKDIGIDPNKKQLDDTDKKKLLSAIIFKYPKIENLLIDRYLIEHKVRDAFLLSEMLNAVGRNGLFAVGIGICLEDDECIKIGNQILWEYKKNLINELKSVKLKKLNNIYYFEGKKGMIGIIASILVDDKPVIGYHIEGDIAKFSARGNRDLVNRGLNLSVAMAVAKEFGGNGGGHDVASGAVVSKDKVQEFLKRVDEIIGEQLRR
The description is as above.

No constants are given. Whether binding was seen depends on the method and setting. Tags and fused reporters may be left off the sequences shown.

B1: Methanocaldococcus jannaschii GINS (MJ0248), 6×His tag and sumo domain removed (protein)
chain: MRVFIIIIYFRCFSKDHKPYFVITMYESLKNYFFEEIKNDKLLKLPDDFYDDIREYIKNIKDDIELERVKYYFKELRKLRIYKALYLDNERENLLPEELNIIHAIENIVVELKIEETPEFKKPTEIDTPKPIYTINDIDVVKVDKNFPPFTDGTFIYDLNKNDVLSLDRKISHILEKHRIISRIGESYENPEES
For the molecule B1, the binding entry in test [1] and in test [2] was “no binding” throughout.
